According to article PMC9295053:
Results are given in words; binding and its absence hold for the method and conditions named. Binding seen in cells or lysates may run through a third protein. These calls come from enrichment with a bait or labelling near it, and not all partners need be listed.

Protein sequences, listed by entry. Tags and fused reporters are not part of them. Lines headed by an entry give the natural chain unless they say otherwise; changes in a name come on top. Chains listed by the source or under a name are the forms on record and can include a tag or linker.
GAC (bait of the immunoprecipitation followed by mass spectrometry) (O94925, form named): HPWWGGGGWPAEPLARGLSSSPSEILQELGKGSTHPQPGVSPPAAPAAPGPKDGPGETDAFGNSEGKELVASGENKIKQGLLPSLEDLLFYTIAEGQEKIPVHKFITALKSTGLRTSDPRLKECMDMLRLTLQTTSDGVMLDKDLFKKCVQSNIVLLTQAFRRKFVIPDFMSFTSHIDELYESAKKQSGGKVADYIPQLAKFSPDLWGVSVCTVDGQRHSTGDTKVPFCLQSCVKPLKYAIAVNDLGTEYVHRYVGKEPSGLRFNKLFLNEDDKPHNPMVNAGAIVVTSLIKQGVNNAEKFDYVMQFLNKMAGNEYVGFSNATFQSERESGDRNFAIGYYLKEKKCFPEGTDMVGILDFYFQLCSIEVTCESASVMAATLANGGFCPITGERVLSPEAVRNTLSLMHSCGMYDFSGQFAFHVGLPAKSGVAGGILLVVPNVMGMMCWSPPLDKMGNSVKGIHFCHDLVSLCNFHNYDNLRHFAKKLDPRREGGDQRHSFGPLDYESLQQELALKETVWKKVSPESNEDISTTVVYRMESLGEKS
UniProt P19474: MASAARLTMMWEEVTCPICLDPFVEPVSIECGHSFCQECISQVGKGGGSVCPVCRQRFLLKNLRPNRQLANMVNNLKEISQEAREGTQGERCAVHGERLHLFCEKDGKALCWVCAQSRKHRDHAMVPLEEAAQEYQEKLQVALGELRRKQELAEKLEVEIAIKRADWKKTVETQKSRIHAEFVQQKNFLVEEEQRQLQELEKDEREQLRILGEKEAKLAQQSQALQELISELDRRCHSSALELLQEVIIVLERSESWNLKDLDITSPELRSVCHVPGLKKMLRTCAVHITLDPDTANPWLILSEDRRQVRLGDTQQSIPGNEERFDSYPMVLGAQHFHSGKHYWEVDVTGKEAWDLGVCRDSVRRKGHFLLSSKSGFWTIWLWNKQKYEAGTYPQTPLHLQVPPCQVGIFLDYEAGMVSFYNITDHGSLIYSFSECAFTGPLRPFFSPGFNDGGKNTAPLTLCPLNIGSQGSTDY

Biological target: GAC (bait of the immunoprecipitation followed by mass spectrometry) (human) (UniProt O94925)
Assay: affinity purification with mass spectrometry; immunoprecipitation of GAC followed with mass spectrometry analysis; cells and antibody not stated

binding: binds
Substance: TRIM21 (Tripartite motif containing-21), identified by mass spectrometry in the GAC immunoprecipitate (from UniProt P19474 1-475) (enzyme)
